Test results as given in the supplement of paper PMC10849652.
The list shows a part of the results.

Amino acid sequences for entries named in this document (tags omitted). A change or cut given only in a name is not applied to a line headed by its entry.
UniProt B2RTY4: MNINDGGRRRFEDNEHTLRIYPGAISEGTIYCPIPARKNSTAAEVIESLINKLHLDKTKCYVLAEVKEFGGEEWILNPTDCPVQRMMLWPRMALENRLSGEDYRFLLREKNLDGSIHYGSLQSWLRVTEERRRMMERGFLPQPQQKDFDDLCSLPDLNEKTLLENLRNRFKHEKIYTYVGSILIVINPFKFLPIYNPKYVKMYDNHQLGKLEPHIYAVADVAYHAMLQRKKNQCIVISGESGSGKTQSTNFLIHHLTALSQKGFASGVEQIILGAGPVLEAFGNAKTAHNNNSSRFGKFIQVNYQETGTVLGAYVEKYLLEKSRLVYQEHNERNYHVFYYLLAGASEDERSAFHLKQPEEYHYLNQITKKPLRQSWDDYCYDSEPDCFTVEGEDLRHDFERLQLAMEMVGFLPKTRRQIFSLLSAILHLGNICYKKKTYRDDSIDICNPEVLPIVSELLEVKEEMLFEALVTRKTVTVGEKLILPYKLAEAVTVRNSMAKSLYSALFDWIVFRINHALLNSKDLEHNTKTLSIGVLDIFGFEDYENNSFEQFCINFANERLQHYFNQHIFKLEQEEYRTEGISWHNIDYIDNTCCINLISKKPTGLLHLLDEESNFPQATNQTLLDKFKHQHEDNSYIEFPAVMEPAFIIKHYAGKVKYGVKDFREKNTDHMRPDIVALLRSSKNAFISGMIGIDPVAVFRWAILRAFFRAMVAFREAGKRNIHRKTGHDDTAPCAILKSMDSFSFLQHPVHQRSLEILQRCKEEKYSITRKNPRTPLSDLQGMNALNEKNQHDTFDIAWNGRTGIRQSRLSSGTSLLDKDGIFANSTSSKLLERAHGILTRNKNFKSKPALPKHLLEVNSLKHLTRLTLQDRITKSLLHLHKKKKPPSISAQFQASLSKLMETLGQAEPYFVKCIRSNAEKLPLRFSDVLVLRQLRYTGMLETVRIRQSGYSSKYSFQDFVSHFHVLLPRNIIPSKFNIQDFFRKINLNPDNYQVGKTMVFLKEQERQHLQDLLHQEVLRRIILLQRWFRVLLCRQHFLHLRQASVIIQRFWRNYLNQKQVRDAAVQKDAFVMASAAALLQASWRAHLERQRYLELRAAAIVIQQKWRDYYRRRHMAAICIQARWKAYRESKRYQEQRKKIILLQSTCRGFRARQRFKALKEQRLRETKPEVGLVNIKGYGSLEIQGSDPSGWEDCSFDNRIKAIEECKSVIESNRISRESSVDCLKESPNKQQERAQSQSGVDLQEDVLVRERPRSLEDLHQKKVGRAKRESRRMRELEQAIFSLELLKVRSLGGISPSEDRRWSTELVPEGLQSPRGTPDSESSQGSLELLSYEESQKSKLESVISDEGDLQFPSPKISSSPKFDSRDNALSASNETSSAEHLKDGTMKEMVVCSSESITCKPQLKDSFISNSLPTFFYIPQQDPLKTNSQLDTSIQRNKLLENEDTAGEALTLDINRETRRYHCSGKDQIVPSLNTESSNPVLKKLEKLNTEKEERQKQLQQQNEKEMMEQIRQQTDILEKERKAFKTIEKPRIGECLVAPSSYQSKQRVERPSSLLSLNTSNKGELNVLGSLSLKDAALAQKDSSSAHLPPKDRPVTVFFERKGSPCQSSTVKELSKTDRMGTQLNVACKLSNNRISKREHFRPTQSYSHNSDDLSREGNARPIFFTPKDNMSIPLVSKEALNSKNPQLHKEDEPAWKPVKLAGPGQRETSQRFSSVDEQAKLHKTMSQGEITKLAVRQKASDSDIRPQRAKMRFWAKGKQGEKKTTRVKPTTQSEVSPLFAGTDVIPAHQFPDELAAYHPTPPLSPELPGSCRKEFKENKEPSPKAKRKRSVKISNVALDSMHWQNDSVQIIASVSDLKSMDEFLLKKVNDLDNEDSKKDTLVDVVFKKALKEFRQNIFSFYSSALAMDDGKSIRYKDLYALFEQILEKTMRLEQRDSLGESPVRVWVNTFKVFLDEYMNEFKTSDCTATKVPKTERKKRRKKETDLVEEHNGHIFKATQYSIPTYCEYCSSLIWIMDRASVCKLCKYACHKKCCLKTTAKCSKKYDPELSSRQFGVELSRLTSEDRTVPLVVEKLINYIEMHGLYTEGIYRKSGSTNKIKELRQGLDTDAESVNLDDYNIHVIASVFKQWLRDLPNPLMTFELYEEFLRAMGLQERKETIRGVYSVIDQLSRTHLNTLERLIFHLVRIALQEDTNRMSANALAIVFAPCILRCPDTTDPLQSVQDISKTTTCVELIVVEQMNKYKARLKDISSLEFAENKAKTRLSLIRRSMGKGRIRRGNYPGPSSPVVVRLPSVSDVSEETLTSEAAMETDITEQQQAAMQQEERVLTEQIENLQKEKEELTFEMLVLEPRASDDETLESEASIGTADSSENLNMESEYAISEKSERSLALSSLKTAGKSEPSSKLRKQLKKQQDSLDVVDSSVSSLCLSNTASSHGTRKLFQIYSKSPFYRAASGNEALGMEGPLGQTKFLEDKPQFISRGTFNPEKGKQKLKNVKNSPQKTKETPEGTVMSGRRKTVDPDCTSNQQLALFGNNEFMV
MTHFD1, A0A384N5Y3, UniProt A0A384N5Y3, whole entry, looked up: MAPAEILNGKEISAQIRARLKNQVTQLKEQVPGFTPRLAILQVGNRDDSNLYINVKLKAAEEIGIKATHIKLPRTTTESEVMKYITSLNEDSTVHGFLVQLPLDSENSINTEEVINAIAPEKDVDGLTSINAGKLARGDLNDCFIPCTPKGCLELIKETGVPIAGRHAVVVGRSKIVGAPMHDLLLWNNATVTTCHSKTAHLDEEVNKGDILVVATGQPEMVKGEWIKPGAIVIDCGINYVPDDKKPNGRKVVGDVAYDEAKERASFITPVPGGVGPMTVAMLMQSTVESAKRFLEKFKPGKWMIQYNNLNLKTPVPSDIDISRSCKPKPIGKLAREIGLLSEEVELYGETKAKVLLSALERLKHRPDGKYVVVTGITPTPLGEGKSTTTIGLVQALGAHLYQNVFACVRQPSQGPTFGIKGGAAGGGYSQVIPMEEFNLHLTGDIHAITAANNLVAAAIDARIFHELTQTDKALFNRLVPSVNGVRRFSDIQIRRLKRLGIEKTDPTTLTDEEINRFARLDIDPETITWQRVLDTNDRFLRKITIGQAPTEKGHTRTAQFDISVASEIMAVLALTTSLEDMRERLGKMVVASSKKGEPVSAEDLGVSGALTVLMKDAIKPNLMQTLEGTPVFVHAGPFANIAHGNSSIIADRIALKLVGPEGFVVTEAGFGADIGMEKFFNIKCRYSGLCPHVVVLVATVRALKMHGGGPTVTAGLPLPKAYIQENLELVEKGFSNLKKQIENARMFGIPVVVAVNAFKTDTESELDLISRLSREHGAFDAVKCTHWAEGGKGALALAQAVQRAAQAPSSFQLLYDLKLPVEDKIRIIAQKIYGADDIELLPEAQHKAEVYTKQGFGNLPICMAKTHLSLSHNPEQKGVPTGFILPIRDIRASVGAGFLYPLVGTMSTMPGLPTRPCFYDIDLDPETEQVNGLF
UniProt Q9BTC8: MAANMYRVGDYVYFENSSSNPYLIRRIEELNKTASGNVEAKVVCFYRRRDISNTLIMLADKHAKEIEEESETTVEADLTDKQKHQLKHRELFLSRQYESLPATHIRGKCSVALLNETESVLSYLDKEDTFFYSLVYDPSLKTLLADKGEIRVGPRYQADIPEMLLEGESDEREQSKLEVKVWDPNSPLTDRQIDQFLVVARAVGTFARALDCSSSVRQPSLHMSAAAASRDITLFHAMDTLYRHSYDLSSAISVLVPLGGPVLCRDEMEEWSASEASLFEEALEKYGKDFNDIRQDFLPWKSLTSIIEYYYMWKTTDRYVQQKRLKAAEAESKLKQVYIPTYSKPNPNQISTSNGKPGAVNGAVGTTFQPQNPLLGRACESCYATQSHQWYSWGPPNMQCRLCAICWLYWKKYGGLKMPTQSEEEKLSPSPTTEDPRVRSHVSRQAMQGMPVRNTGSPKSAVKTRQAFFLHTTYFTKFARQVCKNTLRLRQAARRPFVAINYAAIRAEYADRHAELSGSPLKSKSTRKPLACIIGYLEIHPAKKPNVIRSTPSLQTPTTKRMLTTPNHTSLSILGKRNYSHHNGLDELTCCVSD
UniProt Q8NCE2: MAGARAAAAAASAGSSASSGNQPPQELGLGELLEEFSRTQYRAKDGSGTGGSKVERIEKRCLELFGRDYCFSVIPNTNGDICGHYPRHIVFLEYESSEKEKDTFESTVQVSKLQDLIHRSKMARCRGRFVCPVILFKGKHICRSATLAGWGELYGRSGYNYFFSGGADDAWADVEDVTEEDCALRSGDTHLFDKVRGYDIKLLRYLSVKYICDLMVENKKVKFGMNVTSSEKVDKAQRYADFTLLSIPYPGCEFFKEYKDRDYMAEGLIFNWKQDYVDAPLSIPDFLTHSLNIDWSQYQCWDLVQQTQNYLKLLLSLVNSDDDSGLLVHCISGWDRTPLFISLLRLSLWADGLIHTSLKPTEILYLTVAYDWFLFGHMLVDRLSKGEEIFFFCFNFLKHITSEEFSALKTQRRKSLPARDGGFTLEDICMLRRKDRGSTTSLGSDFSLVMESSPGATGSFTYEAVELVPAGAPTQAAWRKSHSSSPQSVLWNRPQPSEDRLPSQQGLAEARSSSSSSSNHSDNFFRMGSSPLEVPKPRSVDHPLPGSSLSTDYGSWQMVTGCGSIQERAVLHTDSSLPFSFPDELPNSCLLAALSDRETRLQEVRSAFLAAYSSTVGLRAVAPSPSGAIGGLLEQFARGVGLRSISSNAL
UniProt Q99836, whole entry, looked up: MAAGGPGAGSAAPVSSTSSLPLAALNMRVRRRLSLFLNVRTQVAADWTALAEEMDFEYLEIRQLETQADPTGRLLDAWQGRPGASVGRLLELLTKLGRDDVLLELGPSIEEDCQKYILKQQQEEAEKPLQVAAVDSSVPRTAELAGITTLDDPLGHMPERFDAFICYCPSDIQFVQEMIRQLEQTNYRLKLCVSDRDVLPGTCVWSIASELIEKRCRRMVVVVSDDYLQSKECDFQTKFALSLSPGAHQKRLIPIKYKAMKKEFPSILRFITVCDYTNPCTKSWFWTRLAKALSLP
UniProt Q9H019: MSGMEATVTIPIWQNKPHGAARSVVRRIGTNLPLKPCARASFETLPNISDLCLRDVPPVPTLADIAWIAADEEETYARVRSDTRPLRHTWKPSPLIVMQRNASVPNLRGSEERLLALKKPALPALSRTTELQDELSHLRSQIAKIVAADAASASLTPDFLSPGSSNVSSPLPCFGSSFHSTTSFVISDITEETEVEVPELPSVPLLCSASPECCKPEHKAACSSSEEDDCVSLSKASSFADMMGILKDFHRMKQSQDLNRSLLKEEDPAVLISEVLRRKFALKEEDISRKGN
UniProt Q9Y2Z2: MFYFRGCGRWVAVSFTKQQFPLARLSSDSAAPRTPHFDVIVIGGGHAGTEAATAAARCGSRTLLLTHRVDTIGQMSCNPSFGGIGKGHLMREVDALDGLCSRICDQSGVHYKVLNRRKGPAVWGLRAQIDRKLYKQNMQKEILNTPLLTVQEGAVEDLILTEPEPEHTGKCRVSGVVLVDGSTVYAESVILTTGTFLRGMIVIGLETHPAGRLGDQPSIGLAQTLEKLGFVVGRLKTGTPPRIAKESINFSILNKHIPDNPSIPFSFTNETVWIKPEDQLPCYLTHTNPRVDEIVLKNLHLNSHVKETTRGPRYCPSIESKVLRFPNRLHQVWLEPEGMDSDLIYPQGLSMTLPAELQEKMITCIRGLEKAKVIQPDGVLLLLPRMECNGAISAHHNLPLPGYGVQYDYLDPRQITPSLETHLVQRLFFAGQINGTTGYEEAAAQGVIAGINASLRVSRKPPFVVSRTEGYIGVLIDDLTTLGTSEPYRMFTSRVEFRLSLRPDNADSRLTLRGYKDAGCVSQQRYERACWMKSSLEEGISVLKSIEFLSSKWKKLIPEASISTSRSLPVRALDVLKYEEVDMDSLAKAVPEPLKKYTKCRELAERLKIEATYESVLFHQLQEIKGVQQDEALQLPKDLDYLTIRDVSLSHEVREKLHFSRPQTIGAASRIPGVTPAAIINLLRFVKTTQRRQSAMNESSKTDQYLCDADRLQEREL
UniProt Q2M296: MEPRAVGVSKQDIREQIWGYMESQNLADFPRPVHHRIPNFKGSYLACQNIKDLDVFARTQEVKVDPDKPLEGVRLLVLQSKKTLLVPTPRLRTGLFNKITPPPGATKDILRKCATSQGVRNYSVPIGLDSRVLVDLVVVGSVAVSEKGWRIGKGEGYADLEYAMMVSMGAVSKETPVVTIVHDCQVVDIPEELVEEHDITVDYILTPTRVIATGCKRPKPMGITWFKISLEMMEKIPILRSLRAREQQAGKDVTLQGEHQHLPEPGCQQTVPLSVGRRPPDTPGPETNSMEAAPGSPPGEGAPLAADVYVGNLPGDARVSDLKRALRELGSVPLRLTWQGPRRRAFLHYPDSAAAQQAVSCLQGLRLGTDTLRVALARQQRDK
UniProt P13640: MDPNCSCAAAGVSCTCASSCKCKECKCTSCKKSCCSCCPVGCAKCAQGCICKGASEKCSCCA

These targets were tested with CC[C@H](C)[C@@H](C(=O)N[C@@H]([C@@H](C)O)C(=O)N[C@@H](CC(C)C)C(=O)[C@]1(CO1)C)NC(=O)[C@H]([C@@H](C)CC)N(C)C(=O)C [epoxomicin] (assay: log2 fold change, soluble protein after heating vs DMSO (PISA); higher = thermal stabilisation; K562 cells, 10 uM, 30 min; active = over 0.2 and 3.5 SD of the protein, either way, in both replicates (recomputed)).
Outline: (§1)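 Quantification of soluble protein used TMTpro 16plex LC-MS/MS, with channel sums equalised. Samples were the supernatant after 21,000xg for 90 min of pooled aliquots from K562 cells (2×10^6 cells/mL) treated with 10 μM compound for 30 min, heated for 3 min over 48°C-58°C, and extracted in PBS with 0.5% NP-40 at 4°C. Values, from duplicates, describe thermal stability against control samples on a log2 fold-change scale.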

log2 fold change, inactive:
MXRA8 isoform 2 (UniProt Q9BRK3) -0.403
MUC7 (UniProt Q8TAX7) -0.497
MT-ND1 (UniProt P03886) 0.063
MRPS15 (UniProt P82914) -0.007
MTCH2 (UniProt E9PIE4) 0.036
MYO9A isoform 4 (UniProt B2RTY4) -0.01
MYO18B isoform 3 (UniProt Q8IUG5) -0.382
MRPS14 (UniProt O60783) -0.068
MTHFD1, A0A384N5Y3 0.002
MTHFD1 (UniProt P11586) 0.067
MRPS18C (UniProt Q9Y3D5) -0.084
MTA3 (UniProt Q9BTC8) 0.14
MTMR10 (UniProt Q9NXD2) -0.04
MTMR14 (UniProt Q8NCE2) 0.019
MYD88 isoform 6 (UniProt Q99836) 0.015
MTFR1L (UniProt Q9H019) 0.023
MRPS16 (UniProt Q9Y3D3) 0.041
MTFMT (UniProt Q96DP5) 0.165
MRPS21 (UniProt P82921) 0.064
MTMR1 (UniProt Q13613) -0.012
MRPS26 (UniProt Q9BYN8) 0.033
MTERF4 (UniProt Q7Z6M4) 0.02
MTO1 isoform 6 (UniProt Q9Y2Z2) -0.104

The targets below were run with CCn1c(C(=O)N(C2CC2)C2CC2)cc2c3c(ncn3C)c(Nc3cc(C)n(C)n3)nc21 in the same assay as above.
Outline: as §1

log2 fold change, inactive:
MXRA8 isoform 2 (UniProt Q9BRK3) 0.017
MTHFSD isoform 3 (UniProt Q2M296) -0.02
MYL6 (UniProt G3V1V0) -0.035
MTCH2 (UniProt E9PIE4) 0.017
MYO9A isoform 4 (UniProt B2RTY4) 0
MYO18B isoform 3 (UniProt Q8IUG5) -0.14
MTERF3 (UniProt Q96E29) 0.13
MRPS18C (UniProt Q9Y3D5) 0.008
MTA3 (UniProt Q9BTC8) 0.009
MT-CO1 (UniProt P00395) 0.044
MT1G (UniProt P13640) 0.048
MTMR4 (UniProt Q9NYA4) -0.052
MTERF4 (UniProt Q7Z6M4) -0.237
MTO1 isoform 6 (UniProt Q9Y2Z2) 0.028

Each target was assayed with CCn1cc(-c2ccnc3[nH]c(-c4cccc(CN(C)C)c4)cc23)c(-c2ccc(NC(=O)N(C)C)cc2)n1 in the same assay as above.
Outline: as §1

log2 fold change, inactive:
MTHFSD isoform 3 (UniProt Q2M296) -0.088
MRPS15 (UniProt P82914) -0.115
MYO9A isoform 4 (UniProt B2RTY4) -0.023
MYH16 (UniProt Q9H6N6) -0.067
MTERF3 (UniProt Q96E29) 0.237
MRPS14 (UniProt O60783) 0.003
MTHFD1, A0A384N5Y3 -0.113
MTHFD1 (UniProt P11586) -0.159
MYLK (UniProt Q15746) 0.042
MRPS18C (UniProt Q9Y3D5) 0.223
MTA3 (UniProt Q9BTC8) -0.116
MTMR14 (UniProt Q8NCE2) -0.056
MYD88 isoform 6 (UniProt Q99836) -0.1
MT1G (UniProt P13640) -0.129
MTFR1L (UniProt Q9H019) -0.186
MRPS16 (UniProt Q9Y3D3) -0.116
MTMR1 (UniProt Q13613) -0.008
MRPS26 (UniProt Q9BYN8) -0.023
MTO1 isoform 6 (UniProt Q9Y2Z2) -0.117

What follows are targets tested with CN(C)CC(=O)Nc1ccc2[nH]c(=O)c3ccccc3c2c1 in the same assay as above.
Outline: as §1

log2 fold change, inactive:
MXRA8 isoform 2 (UniProt Q9BRK3) -0.547
MT-ND1 (UniProt P03886) 0.253
MTHFSD isoform 3 (UniProt Q2M296) 0.225
MYL6 (UniProt G3V1V0) -0.079
MRPS15 (UniProt P82914) -0.01
MTCH2 (UniProt E9PIE4) 0.029
MYO9A isoform 4 (UniProt B2RTY4) -0.035
MYH16 (UniProt Q9H6N6) 0.011
MT-CO3 (UniProt P00414) 0.181
MRPS14 (UniProt O60783) -0.003
MTHFD1, A0A384N5Y3 0.045
MTHFD1 (UniProt P11586) 0.051
MYLK (UniProt Q15746) 0.184
MRPS18C (UniProt Q9Y3D5) -0.025
MTMR14 (UniProt Q8NCE2) 0.001
MT-CO1 (UniProt P00395) -0.028
MYD88 isoform 6 (UniProt Q99836) -0.039
MT1G (UniProt P13640) -0.063
MTFR1L (UniProt Q9H019) 0.08
MRPS16 (UniProt Q9Y3D3) 0.046
MTFMT (UniProt Q96DP5) 0.137
MRPS21 (UniProt P82921) 0.058
MTMR1 (UniProt Q13613) -0.043
MRPS26 (UniProt Q9BYN8) 0.003
MTO1 isoform 6 (UniProt Q9Y2Z2) 0.048
